Data from article PMC5702805.
Results are given in words; binding and its absence hold for the method and conditions named. In cells and extracts the contact can be indirect. Some entries that bind do so weakly or less than the wild type. Tags and fused reporters may be left off the sequences shown.

How the values were obtained:
[1] = target: T1, human P2X4 receptor subunit, full length, C-terminally labelled with GFP or RFP (human) (UniProt Q99571); assay: FRET or BRET; donor (GFP) dequenching after acceptor (RFP) photobleaching; GFP- and RFP-labelled subunits coexpressed in intact Xenopus laevis oocytes; confocal laser scanning microscope, at the oocyte pole or equator, in ORi pH 7.4; FRET efficiency by extrapolation to complete acceptor bleaching
T1 sequence: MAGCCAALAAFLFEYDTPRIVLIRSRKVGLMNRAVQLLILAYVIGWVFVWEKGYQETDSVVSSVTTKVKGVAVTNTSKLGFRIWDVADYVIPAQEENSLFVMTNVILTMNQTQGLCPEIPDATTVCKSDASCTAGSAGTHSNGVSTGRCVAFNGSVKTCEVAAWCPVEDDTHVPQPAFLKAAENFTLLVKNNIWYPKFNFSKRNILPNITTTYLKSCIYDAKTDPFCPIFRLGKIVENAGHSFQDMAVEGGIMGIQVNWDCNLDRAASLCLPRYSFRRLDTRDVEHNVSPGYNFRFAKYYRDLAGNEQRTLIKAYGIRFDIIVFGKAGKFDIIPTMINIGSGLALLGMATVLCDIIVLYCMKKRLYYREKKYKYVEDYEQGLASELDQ

[2] = target: T2, human P2X7 receptor subunit, full length, C-terminally labelled with GFP or RFP (human) (UniProt Q99572); assay: as above
T2 sequence: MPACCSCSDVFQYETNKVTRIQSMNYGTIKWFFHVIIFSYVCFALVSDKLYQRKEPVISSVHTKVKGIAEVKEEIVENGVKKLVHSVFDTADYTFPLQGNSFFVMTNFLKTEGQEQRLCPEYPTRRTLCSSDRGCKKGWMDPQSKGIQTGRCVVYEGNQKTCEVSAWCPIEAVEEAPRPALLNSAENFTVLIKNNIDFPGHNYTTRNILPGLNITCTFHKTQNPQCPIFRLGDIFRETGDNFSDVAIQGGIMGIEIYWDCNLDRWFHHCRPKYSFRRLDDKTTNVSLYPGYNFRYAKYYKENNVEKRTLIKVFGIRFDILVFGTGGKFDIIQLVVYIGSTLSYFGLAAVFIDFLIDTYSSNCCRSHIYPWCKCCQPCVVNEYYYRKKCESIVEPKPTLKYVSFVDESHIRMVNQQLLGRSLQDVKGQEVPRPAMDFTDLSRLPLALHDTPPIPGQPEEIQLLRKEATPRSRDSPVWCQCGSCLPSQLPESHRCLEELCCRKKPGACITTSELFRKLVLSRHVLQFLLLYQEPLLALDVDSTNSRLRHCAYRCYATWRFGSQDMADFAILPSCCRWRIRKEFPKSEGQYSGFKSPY

B1: human P2X4 receptor subunit, full length, C-terminally labelled with GFP or RFP (receptor, UniProt Q99571-1 1-388)
chain: T1 sequence
With B1 the binding [1] was “binds”.

B2: C-terminally truncated human P2X7 subunit hP2X7^1-408, C-terminally labelled with GFP or RFP (domain or fragment, UniProt Q99572-1 1-408)
chain: MPACCSCSDVFQYETNKVTRIQSMNYGTIKWFFHVIIFSYVCFALVSDKLYQRKEPVISSVHTKVKGIAEVKEEIVENGVKKLVHSVFDTADYTFPLQGNSFFVMTNFLKTEGQEQRLCPEYPTRRTLCSSDRGCKKGWMDPQSKGIQTGRCVVYEGNQKTCEVSAWCPIEAVEEAPRPALLNSAENFTVLIKNNIDFPGHNYTTRNILPGLNITCTFHKTQNPQCPIFRLGDIFRETGDNFSDVAIQGGIMGIEIYWDCNLDRWFHHCRPKYSFRRLDDKTTNVSLYPGYNFRYAKYYKENNVEKRTLIKVFGIRFDILVFGTGGKFDIIQLVVYIGSTLSYFGLAAVFIDFLIDTYSSNCCRSHIYPWCKCCQPCVVNEYYYRKKCESIVEPKPTLKYVSFVDESH
For B2, the binding [2] was “binds” and the binding [1] was “binds”.

B3: human glycine receptor α1 subunit labelled with GFP after the signal peptide (SP-GFP-hGLYRA1) (receptor, UniProt P23415-2 29-449)
chain: ARSAPKPMSPSDFLDKLMGRTSGYDARIRPNFKGPPVNVSCNIFINSFGSIAETTMDYRVNIFLRQQWNDPRLAYNEYPDDSLDLDPSMLDSIWKPDLFFANEKGAHFHEITTDNKLLRISRNGNVLYSIRITLTLACPMDLKNFPMDVQTCIMQLESFGYTMNDLIFEWQEQGAVQVADGLTLPQFILKEEKDLRYCTKHYNTGKFTCIEARFHLERQMGYYLIQMYIPSLLIVILSWISFWINMDAAPARVGLGITTVLTMTTQSSGSRASLPKVSYVKAIDIWMAVCLLFVFSALLEYAAVNFVSRQHKELLRFRRKRRHHKEDEAGEGRFNFSAYGMGPACLQAKDGISVKGANNSNTTNPPPAPSKSPEEMRKLFIQRAKKIDKISRIGFPMAFLIFNMFYWIIYKIVRREDVHNQ
For B3, the binding [1] was “no binding”.
